From publication PMC4549061
Results are given in words; binding and its absence hold for the method and conditions named. Binding seen in cells or lysates may run through a third protein.

Sequences of proteins named here, by UniProt entry; tags and fusion partners are left off. A change or cut given only in a name is not applied to a line headed by its entry.
UniProt Q04735: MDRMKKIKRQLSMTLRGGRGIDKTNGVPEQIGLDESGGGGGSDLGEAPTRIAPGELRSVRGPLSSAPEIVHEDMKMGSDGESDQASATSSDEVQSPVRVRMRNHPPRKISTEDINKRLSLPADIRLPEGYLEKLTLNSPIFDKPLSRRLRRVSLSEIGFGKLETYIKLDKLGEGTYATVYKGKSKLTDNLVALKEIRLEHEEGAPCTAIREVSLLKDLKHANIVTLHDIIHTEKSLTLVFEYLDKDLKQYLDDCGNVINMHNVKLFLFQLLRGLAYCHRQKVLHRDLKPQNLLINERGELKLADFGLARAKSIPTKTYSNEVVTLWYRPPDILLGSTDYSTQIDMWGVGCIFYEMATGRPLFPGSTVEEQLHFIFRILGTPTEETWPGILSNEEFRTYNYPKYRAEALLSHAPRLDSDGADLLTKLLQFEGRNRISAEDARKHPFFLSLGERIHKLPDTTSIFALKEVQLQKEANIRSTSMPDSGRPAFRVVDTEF
UniProt D3YUJ3: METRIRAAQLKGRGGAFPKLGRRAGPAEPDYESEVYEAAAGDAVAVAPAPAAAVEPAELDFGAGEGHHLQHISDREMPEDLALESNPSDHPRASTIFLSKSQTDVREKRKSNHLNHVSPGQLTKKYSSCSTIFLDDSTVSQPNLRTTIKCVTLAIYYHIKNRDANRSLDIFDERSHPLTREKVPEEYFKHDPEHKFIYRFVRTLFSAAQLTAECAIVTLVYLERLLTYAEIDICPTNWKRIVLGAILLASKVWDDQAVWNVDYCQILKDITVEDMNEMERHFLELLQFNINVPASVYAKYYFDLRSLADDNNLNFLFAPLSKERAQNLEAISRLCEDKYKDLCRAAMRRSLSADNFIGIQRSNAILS

Target: CDK16-Flag PCTAIRE mutant (PCTAIRE was mutated to ACAAIAA) (mouse) (UniProt Q04735)
Test: co-IP; HEK293T cells co-transfected with HA- and Flag-tagged plasmids; lysed in IP buffer (150mM NaCl, 50mM Tris, 1mM EGTA, 0.2% NP-40); anti-HA or anti-Flag conjugated agarose, 4°C, 2 hours; western blot

## CCNYL1-HA (N-terminal HA-tagged Cyclin Y-like 1) (from UniProt D3YUJ3 1-367)
  binding: no binding
